Measurements from patent US9738656B2, “Pyranodipyridine compound” (Eisai R&D Management Co., Ltd., priority 2015, dated 2017).
Some of these results come from one statement about several compounds together.

System: AMPA receptor
Assay: AMPA-induced intraneuronal calcium entry-suppressing action (primary culture of embryonic rat cerebral cortex neurons, Fura 2-AM)
Format: cell-based
Conditions: summary of Table 1
Description: The present inventors conducted the following tests, in order to confirm the effects of the compounds of the present invention. With regard to the AMPA receptor inhibitory action of the compounds, AMPA-induced intraneuronal calcium entry-suppressing action was examined using a primary culture system of embryonic rat cerebral cortex neurons. With regard to the anticonvulsant action of the compounds, 6 Hz (44 mA) stimulation-induced convulsions known as a treatment-resistant convulsion model were used. AMPA inhibitor-induced central nervous system depressant action such as loss of coordination was evaluated using a rotarod performance test.
AMPA-Induced Intraneuronal Calcium Entry-Suppressing Action
<Culture conditions> Whole fetuses were removed from the uteri of Wistar rats at embryonic day 18 (Charles River Japan) anesthetized with isoflurane. Whole brains were removed from the whole fetuses, and the cerebral cortex was separated in Leibovitz's L-15 medium or Hanks balanced salt solution containing 20% fetal bovine serum. The resulting material was treated with trypsin/DNase solution at 37° C. for 45 to 60 minutes. After the serum was added to stop the trypsin reaction, the resulting material was centrifuged at 1200 to 1500 rpm for 3 to 5 minutes. After the supernatant was removed, Neurobasal medium (containing 2% B-27 supplement and the like; hereinafter “Neurobasal medium”) was added, and the cells were uniformly dispersed by gently pipetting. The cell suspension was slightly stirred, and then filtered through a nylon mesh filter. Viable cells were counted using a hemocytometer, and diluted with Neurobasal medium to 8 to 10×10^5 cells/mL. The cells were seeded into 96 well plates at 100 μL per well and cultured in a CO2 incubator (5% CO2, 37° C.). The medium was replaced after 24 hours, and neurons cultured for 7 to 21 days were used.
On the day of the assay, the medium was removed and replaced with a calcium measurement solution containing 5 to 10 μmol/L of Fura 2-AM (140 mmol/L sodium chloride, 5 mmol/L potassium chloride, 2 mmol/L magnesium chloride, 3 mmol/L calcium chloride, 24 mmol/L D(+)-glucose, 10 mmol/L HEPES, 1 μmol/L MK-801, pH 7.4), and the cells were treated in a CO2 incubator (5% CO2, 37° C.) for 1 to 2 hours. The calcium measurement solution containing the Fura-2 AM solution was subsequently removed, and the neurons in each well were washed twice with the calcium measurement solution for each well, and then 50 μL of the calcium measurement solution was added to each well. Subsequently, 50 μL of a test compound or medium prepared at a concentration 3-fold higher than the final concentration was added, and the cells were pre-treated for about 15 minutes. The plates were subsequently placed on the Fluorescence Drug Screening System 6000 (Hamamatsu Photonics K.K.). The cells were stimulated by adding to each well 50 μL of an AMPA stimulating solution prepared to 3.3 μmol/L with the calcium measurement solution. Changes in calcium concentration were measured as the changes in fluorescence intensity at excitation wavelengths of 340 nm and 380 nm (measurement wavelength: 540 nm). The rate of change of the intracellular calcium concentration was calculated according to the following equation: Rate of increase of the intracellular calcium concentration (% control)=(Tpost−Tpre)/(Cpost−Cpre)×100
wherein Tpost: the proportion of fluorescence of sample wells after stimulation; Tpro: the proportion of fluorescence of sample wells before stimulation; Cpost: the proportion of fluorescence of control wells after stimulation; and Cpre: the proportion of fluorescence of control wells before stimulation.
The IC50 value of the test compound for AMPA inhibition was determined from the rates of increase of the intracellular calcium concentration at various concentrations.

How did the “AMPA receptor inhibitory action (in words)” value turn out when O=c1c(-c2ccccc2Cl)cc2c(n1-c1cccnc1)COc1cccnc1-2 [Example 1, 9-(2-chlorophenyl)-7-(pyridin-3-yl)-6H-pyrano[3,2-b:5,4-b′]dipyridin-8(7H)-one] was run?
Its value is “sufficient AMPA receptor inhibitory action”.

COc1cncc(-n2c3c(cc(-c4cccc(F)c4C#N)c2=O)-c2ncccc2OC3)c1 [Example 2, 2-fluoro-6-(7-(5-methoxypyridin-3-yl)-8-oxo-7,8-dihydro-6H-pyrano[3,2-b:5,4-b′]dipyridin-9-yl)benzonitrile] was tested. Which “AMPA receptor inhibitory action (in words)” value did it give?
The value was “sufficient AMPA receptor inhibitory action”.

How did the “AMPA receptor inhibitory action (in words)” value turn out when Cc1ccc(-n2c3c(cc(-c4cccc(F)c4C#N)c2=O)-c2ncccc2OC3)cn1 [Example 3, 2-fluoro-6-(7-(6-methylpyridin-3-yl)-8-oxo-7,8-dihydro-6H-pyrano[3,2-b:5,4-b′]dipyridin-9-yl)benzonitrile] was run?
The value was “sufficient AMPA receptor inhibitory action”.

For Cc1ccc(-n2c3c(cc(-c4cccc(F)c4Cl)c2=O)-c2ncccc2OC3)cn1 [Example 4, 9-(2-chloro-3-fluorophenyl)-7-(6-methylpyridin-3-yl)-6H-pyrano[3,2-b:5,4-b′]dipyridin-8(7H)-one], which “AMPA receptor inhibitory action (in words)” value is on record?
The value was “sufficient AMPA receptor inhibitory action”.

Which “AMPA receptor inhibitory action (in words)” value does the source give for COc1ncc(-n2c3c(cc(-c4cccc(F)c4C#N)c2=O)-c2ncccc2OC3)cn1 [Example 5, 2-fluoro-6-(7-(2-methoxypyrimidin-5-yl)-8-oxo-7,8-dihydro-6H-pyrano[3,2-b:5,4-b′]dipyridin-9-yl)benzonitrile] here?
The value was “sufficient AMPA receptor inhibitory action”.

With O=c1c(-c2c(F)c(F)cc(F)c2F)cc2c(n1-c1cccnc1)COc1cccnc1-2 [Example 6, 7-(pyridin-3-yl)-9-(2,3,5,6-tetrafluorophenyl)-6H-pyrano[3,2-b:5,4-b′]dipyridin-8(7H)-one] as the molecule, how does the “AMPA receptor inhibitory action (in words)” value read?
Its value is “sufficient AMPA receptor inhibitory action”.

N#Cc1ncccc1-c1cc2c(n(-c3ccsc3)c1=O)COc1cccnc1-2 [Example 7, 3-(8-oxo-7-(thiophen-3-yl)-7,8-dihydro-6H-pyrano[3,2-b:5,4-b′]dipyridin-9-yl)picolinonitrile] was tested. Which “AMPA receptor inhibitory action (in words)” value did it give?
Its value is “sufficient AMPA receptor inhibitory action”.

N#Cc1nccnc1-c1cc2c(n(-c3ccsc3)c1=O)COc1cccnc1-2 [Example 8, 3-(8-oxo-7-(thiophen-3-yl)-7,8-dihydro-6H-pyrano[3,2-b:5,4-b′]dipyridin-9-yl)pyrazine-2-carbonitrile] was tested. Which “AMPA receptor inhibitory action (in words)” value did it give?
Its value is “sufficient AMPA receptor inhibitory action”.

Which “AMPA receptor inhibitory action (in words)” value does the source give for O=c1c(-c2ccccc2F)cc2c(n1-c1ccccc1)COc1cccnc1-2 [Example 9, 9-(2-fluorophenyl)-7-phenyl-6H-pyrano[3,2-b:5,4-b′]dipyridin-8(7H)-one] here?
The value was “sufficient AMPA receptor inhibitory action”.

How did the “AMPA receptor inhibitory action (in words)” value turn out when N#Cc1ccccc1-c1cc2c(n(-c3ccc(F)cc3)c1=O)COc1cccnc1-2 [Example 10, 2-(7-(4-fluorophenyl)-8-oxo-7,8-dihydro-6H-pyrano[3,2-b:5,4-b′]dipyridin-9-yl)benzonitrile] was run?
The value was “sufficient AMPA receptor inhibitory action”.

Which “AMPA receptor inhibitory action (in words)” value does the source give for N#Cc1ncccc1-c1cc2c(n(-c3ccc(F)cc3)c1=O)COc1cccnc1-2 [Example 11, 3-(7-(4-fluorophenyl)-8-oxo-7,8-dihydro-6H-pyrano[3,2-b:5,4-b′]dipyridin-9-yl)picolinonitrile] here?
The value was “sufficient AMPA receptor inhibitory action”.

Which “AMPA receptor inhibitory action (in words)” value does the source give for N#Cc1ncccc1-c1cc2c(n(-c3ccccc3F)c1=O)COc1cccnc1-2 [Example 12, 3-(7-(2-fluorophenyl)-8-oxo-7,8-dihydro-6H-pyrano[3,2-b:5,4-b′]dipyridin-9-yl)picolinonitrile] here?
Its value is “sufficient AMPA receptor inhibitory action”.

N#Cc1ncccc1-c1cc2c(n(-c3ccccc3)c1=O)COc1cc(F)cnc1-2 [Example 13, 3-(3-fluoro-8-oxo-7-phenyl-7,8-dihydro-6H-pyrano[3,2-b:5,4-b′]dipyridin-9-yl)picolinonitrile] was tested. Which “AMPA receptor inhibitory action (in words)” value did it give?
The value was “sufficient AMPA receptor inhibitory action”.

With N#Cc1c(F)cccc1-c1cc2c(n(-c3cccnc3)c1=O)COc1cc(F)cnc1-2 [Example 14, 2-fluoro-6-(3-fluoro-8-oxo-7-(pyridin-3-yl)-7,8-dihydro-6H-pyrano[3,2-b:5,4-b′]dipyridin-9-yl)benzonitrile] as the molecule, how does the “AMPA receptor inhibitory action (in words)” value read?
Its value is “sufficient AMPA receptor inhibitory action”.

For N#Cc1c(F)cccc1-c1cc2c(n(-c3cncc(F)c3)c1=O)COc1cccnc1-2 [Example 15, 2-fluoro-6-(7-(5-fluoropyridin-3-yl)-8-oxo-7,8-dihydro-6H-pyrano[3,2-b:5,4-b′]dipyridin-9-yl)benzonitrile], which “AMPA receptor inhibitory action (in words)” value is on record?
The value was “sufficient AMPA receptor inhibitory action”.

For N#Cc1c(F)cccc1-c1cc2c(n(-c3cccnc3)c1=O)COc1cccc(F)c1-2 [Example 16, 2-fluoro-6-(10-fluoro-3-oxo-4-(pyridin-3-yl)-4,5-dihydro-3H-chromeno[3,4-b]pyridin-2-yl)benzonitrile], which “AMPA receptor inhibitory action (in words)” value is on record?
The value was “sufficient AMPA receptor inhibitory action”.

With O=c1c(-c2cccc(F)c2Cl)cc2c(n1-c1cncc(F)c1)COc1cccnc1-2 [Example 17, 9-(2-chloro-3-fluorophenyl)-7-(5-fluoropyridin-3-yl)-6H-pyrano[3,2-b:5,4-b′]dipyridin-8(7H)-one] as the molecule, how does the “AMPA receptor inhibitory action (in words)” value read?
The value was “sufficient AMPA receptor inhibitory action”.

How did the “AMPA receptor inhibitory action (in words)” value turn out when N#Cc1c(F)cccc1-c1cc2c(n(-c3cncnc3)c1=O)COc1cccnc1-2 [Example 18, 2-fluoro-6-(8-oxo-7-(pyrimidin-5-yl)-7,8-dihydro-6H-pyrano[3,2-b:5,4-b′]dipyridin-9-yl)benzonitrile] was run?
The value was “sufficient AMPA receptor inhibitory action”.

With N#Cc1c(F)ccc(F)c1-c1cc2c(n(-c3cccnc3)c1=O)COc1cccnc1-2 [Example 19, 3,6-difluoro-2-(8-oxo-7-(pyridin-3-yl)-7,8-dihydro-6H-pyrano[3,2-b:5,4-b′]dipyridin-9-yl)benzonitrile] as the molecule, how does the “AMPA receptor inhibitory action (in words)” value read?
The value was “sufficient AMPA receptor inhibitory action”.

With N#Cc1c(F)cccc1-c1cc2c(n(-c3cncc(Cl)c3)c1=O)COc1cccnc1-2 [Example 20, 2-(7-(5-chloropyridin-3-yl)-8-oxo-7,8-dihydro-6H-pyrano[3,2-b:5,4-b′]dipyridin-9-yl)-6-fluorobenzonitrile] as the molecule, how does the “AMPA receptor inhibitory action (in words)” value read?
Its value is “sufficient AMPA receptor inhibitory action”.

Which “AMPA receptor inhibitory action (in words)” value does the source give for Cc1ncc(-n2c3c(cc(-c4cccc(F)c4C#N)c2=O)-c2ncccc2OC3)cn1 [Example 21, 2-fluoro-6-(7-(2-methylpyrimidin-5-yl)-8-oxo-7,8-dihydro-6H-pyrano[3,2-b:5,4-b′]dipyridin-9-yl)benzonitrile] here?
Its value is “sufficient AMPA receptor inhibitory action”.

For Cc1c(F)cccc1-c1cc2c(n(-c3cccnc3)c1=O)COc1cccnc1-2 [Example 22, 9-(3-fluoro-2-methylphenyl)-7-(pyridin-3-yl)-6H-pyrano[3,2-b:5,4-b′]dipyridin-8(7H)-one], which “AMPA receptor inhibitory action (in words)” value is on record?
The value was “sufficient AMPA receptor inhibitory action”.
